PubChem BioAssay AID652243 – Drosophila RNAi Screening Center – 2013
The deposit covers about 24,000 reagents; shown is an unselected part of those with a known target gene and a result. Of all reagents, 246 (1%) were called active. 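Plates not normalised; calls are printed but the firefly/Renilla ratio behind them is not deposited; fold cut for lowering reported inconsistently.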 The raw values are shown without normalisation. Not stated in the record: the amount of reagent.

Screen: 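Fly regulators of androgen-dependent reporter output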 (primary screen)
Cell system: Drosophila S2R+ cells
Knock-down reagent: long dsRNA against Drosophila genes
Time to read-out: 72 h (48 h, then 24 h hormone)
Challenge: synthetic androgen R1881 at 10 nM for 24 h
Detection: 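Per-well raw luminescence of the androgen-driven firefly reporter and of the Renilla control, two replicates each, without normalisation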
Direction: firefly reporter light: higher = more light from androgen-responsive reporter; Renilla control light: higher = more constitutive control signal (cell number, transfection)
Call rule: 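Hit when the log firefly-to-Renilla ratio dropped or increased by a fixed fold versus the mean of GFP or LacZ controls across duplicate plates; lowering cut given as 1.5 and as 3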
Calls: active = hit: reporter lowered or raised; inactive = no hit

target gene | dsRNA | firefly reporter light, replicate 1 | firefly reporter light, replicate 2 | Renilla control light, replicate 1 | Renilla control light, replicate 2 | activity call
CG31198 | DRSC15891 | 91854 | 98543 | 6.34e5 | 7.47e5 | inactive
CG14691 | DRSC14914 | 1.41e5 | 1.79e5 | 1.67e6 | 1.46e6 | inactive
CG14691 | DRSC27957 | 8.11e5 | 3.33e5 | 3.19e6 | 1.52e6 | inactive
CG7582 | DRSC16261 | 2.00e5 | 2.36e5 | 1.94e6 | 2.34e6 | inactive
RhoGAP16F | DRSC20025 | 74666 | 80797 | 5.93e5 | 5.73e5 | inactive
RNaseZ | DRSC06845 | 3.33e5 | 2.12e5 | 1.75e6 | 1.45e6 | inactive
COX5B | DRSC02115 | 2.19e5 | 1.71e5 | 1.79e6 | 1.61e6 | inactive
CG34273 | DRSC38819 | 7.54e5 | 5.80e5 | 1.59e6 | 1.21e6 | inactive
Rh50 | DRSC08692 | 6.50e5 | 9.04e5 | 1.04e6 | 1.67e6 | inactive
Tbh | DRSC18723 | 2.54e5 | 3.25e5 | 2.49e6 | 2.48e6 | inactive
Tbh | DRSC26690 | 2.53e5 | 2.00e5 | 6.11e5 | 5.98e5 | inactive
RpS14b | DRSC18711 | 88915 | 98228 | 1.19e6 | 1.08e6 | inactive
CG10737 | DRSC05999 | 5.41e5 | 3.66e5 | 9.59e5 | 8.09e5 | inactive
CG10737 | DRSC26112 | 3.32e5 | 2.77e5 | 7.18e5 | 6.39e5 | inactive
EAChm | DRSC10010 | 1.41e5 | 1.68e5 | 1.90e6 | 2.01e6 | inactive
CG13587 | DRSC04223 | 2.87e5 | 2.78e5 | 1.84e6 | 1.11e6 | inactive
CG13587 | DRSC29632 | 4.24e5 | 4.98e5 | 1.16e6 | 1.16e6 | inactive
tup | DRSC03627 | 8.15e5 | 5.80e5 | 1.94e6 | 1.89e6 | inactive
tup | DRSC23978 | 2.83e5 | 2.37e5 | 6.77e5 | 4.62e5 | inactive
bma | DRSC09896 | 3.21e5 | 2.65e5 | 1.86e6 | 1.36e6 | inactive
bma | DRSC10164 | 2.48e5 | 2.09e5 | 2.74e6 | 1.76e6 | inactive
bma | DRSC28408 | 2.44e5 | 5.32e5 | 8.32e5 | 1.49e6 | inactive
bma | DRSC37064 | – | – | – | – | inactive
CG30109 | DRSC05675 | 4.30e5 | 5.51e5 | 6.82e5 | 6.66e5 | inactive
Pex10 | DRSC08599 | 4.05e5 | 4.47e5 | 2.98e6 | 2.63e6 | inactive
Pex10 | DRSC22021 | 5.73e5 | 6.65e5 | 2.14e6 | 2.13e6 | inactive
CG11858 | DRSC14412 | 7.26e5 | 7.04e5 | 1.88e6 | 1.33e6 | inactive
CG11858 | DRSC29222 | 1.02e6 | 9.19e5 | 1.46e6 | 1.17e6 | inactive
CG42811 | DRSC15367 | 2.32e5 | 1.77e5 | 2.77e6 | 2.74e6 | inactive
CG16957 | DRSC02545 | 2.51e5 | 2.78e5 | 1.67e6 | 1.92e6 | inactive
CG32638 | DRSC18968 | 8.00e5 | 5.36e5 | 1.04e6 | 6.39e5 | inactive
ohgt | DRSC15521 | 1.17e5 | 1.33e5 | 2.37e6 | 2.68e6 | inactive
ohgt | DRSC30024 | 3.94e5 | 3.68e5 | 9.70e5 | 1.06e6 | inactive
Kpc2 | DRSC07635 | 95706 | 1.09e5 | 9.08e5 | 1.47e6 | inactive
EndoA | DRSC14775 | 63643 | 49232 | 3.95e5 | 3.69e5 | inactive
EndoA | DRSC29646 | 2.95e5 | 3.81e5 | 8.48e5 | 8.48e5 | inactive
PolD3 | DRSC01961 | 8.93e5 | 6.27e5 | 2.21e6 | 1.89e6 | inactive
PolD3 | DRSC28401 | 2.92e5 | 4.45e5 | 3.73e5 | 7.03e5 | inactive
CG9132 | DRSC20159 | 51201 | 96190 | 4.81e5 | 4.95e5 | inactive
CG34166 | DRSC02482 | 5.96e5 | 5.28e5 | 1.95e6 | 1.66e6 | inactive
CG34166 | DRSC27934 | 6.33e5 | 4.74e5 | 1.59e6 | 1.27e6 | inactive
CG34166 | DRSC39101 | 4.57e5 | 4.32e5 | 1.32e6 | 1.11e6 | inactive
CG32639 | DRSC18972 | 3.14e5 | 2.58e5 | 3.51e5 | 2.43e5 | inactive
Tbc1d8-9 | DRSC11820 | 81457 | 53168 | 2.44e5 | 2.98e5 | inactive
Catsup | DRSC03288 | 1.10e5 | 94913 | 8.87e5 | 8.33e5 | inactive
Catsup | DRSC25727 | 1.06e6 | 8.29e5 | 1.45e6 | 1.07e6 | inactive
Osi17 | DRSC12284 | 90896 | 1.22e5 | 1.81e6 | 1.78e6 | inactive
CG11555 | DRSC00315 | 1.07e5 | 1.48e5 | 6.84e5 | 9.80e5 | inactive
CG11555 | DRSC24179 | 1.02e6 | 1.16e6 | 1.29e6 | 9.78e5 | inactive
Gr63a | DRSC08438 | 92278 | 81422 | 8.47e5 | 1.01e6 | inactive
tsu | DRSC07265 | 3.68e5 | 1.89e5 | 1.91e6 | 1.44e6 | inactive
CG6428 | DRSC18402 | 4.17e5 | 2.91e5 | 4.25e6 | 2.70e6 | inactive
row | DRSC07076 | 6.92e5 | 5.98e5 | 8.45e5 | 9.46e5 | inactive
row | DRSC07077 | 58590 | 61077 | 1.28e6 | 1.28e6 | inactive
CG5280 | DRSC10498 | 3.77e5 | 2.51e5 | 4.67e6 | 3.37e6 | inactive
CG5280 | DRSC22835 | 4.24e5 | 1.04e6 | 6.28e5 | 9.96e5 | inactive
CG4462 | DRSC15583 | 51436 | 59335 | 6.10e5 | 6.05e5 | inactive
CG4462 | DRSC25650 | 5.00e5 | 9.89e5 | 7.56e5 | 9.36e5 | inactive
CG12012 | DRSC08220 | 1.74e5 | 1.89e5 | 1.69e6 | 2.19e6 | inactive
GstT4 | DRSC19757 | 86596 | 1.70e5 | 8.62e5 | 1.08e6 | inactive
IKKbeta | DRSC16714 | 74548 | 1.34e5 | 7.48e5 | 6.30e5 | inactive
IKKbeta | DRSC36747 | – | – | – | – | inactive
IKKbeta | DRSC36748 | – | – | – | – | inactive
CG15404 | DRSC00418 | 1.51e5 | 1.39e5 | 1.18e6 | 8.95e5 | inactive
CG4511 | DRSC15589 | 1.23e5 | 1.23e5 | 2.46e6 | 2.29e6 | inactive
CG4511 | DRSC28640 | 3.19e5 | 3.57e5 | 1.21e6 | 1.20e6 | inactive
Mtp | DRSC03216 | 1.51e6 | 1.30e6 | 4.02e6 | 2.57e6 | inactive
CG4080 | DRSC10398 | 1.09e6 | 4.79e5 | 1.36e6 | 6.62e5 | inactive
CG13155 | DRSC06280 | 2.61e5 | 2.26e5 | 1.24e6 | 1.63e6 | inactive
CG13306 | DRSC09976 | 2.20e5 | 2.76e5 | 2.19e6 | 2.29e6 | inactive
CG10761 | DRSC17753 | 2.87e5 | 3.51e5 | 2.35e6 | 2.41e6 | inactive
CG10761 | DRSC27665 | 3.67e5 | 4.32e5 | 3.11e5 | 5.70e5 | inactive
CG9691 | DRSC18441 | 2.95e5 | 4.58e5 | 3.12e6 | 3.01e6 | inactive
CG31998 | DRSC17137 | 53823 | 38347 | 6.33e5 | 3.25e5 | inactive
CG31998 | DRSC17138 | 2.12e5 | 2.17e5 | 1.82e6 | 2.54e6 | inactive

A few values from the list.
Value of CG4462 [DRSC15583] in “Renilla control light, replicate 2”: 6.05e5
CG4511 [DRSC28640], Renilla control light, replicate 2 → 1.20e6
Result for RNaseZ [DRSC06845] under “firefly reporter light, replicate 2”: 2.12e5
CG14691 [DRSC27957], firefly reporter light, replicate 2 → 3.33e5
For “Renilla control light, replicate 1”, CG30109 [DRSC05675] has 6.82e5
CG34166 [DRSC02482], Renilla control light, replicate 1: 1.95e6
